# In PubChem BioAssay AID1259354 (Paczesny and Yang Labs, IUPUI and University of Michigan, 2018):
# The chains behind the UniProt entries cited, without tags or fusion partners. Where a name states a change or a piece, a line headed by the entry shows the natural chain unless it says otherwise.
# UniProt Q01638: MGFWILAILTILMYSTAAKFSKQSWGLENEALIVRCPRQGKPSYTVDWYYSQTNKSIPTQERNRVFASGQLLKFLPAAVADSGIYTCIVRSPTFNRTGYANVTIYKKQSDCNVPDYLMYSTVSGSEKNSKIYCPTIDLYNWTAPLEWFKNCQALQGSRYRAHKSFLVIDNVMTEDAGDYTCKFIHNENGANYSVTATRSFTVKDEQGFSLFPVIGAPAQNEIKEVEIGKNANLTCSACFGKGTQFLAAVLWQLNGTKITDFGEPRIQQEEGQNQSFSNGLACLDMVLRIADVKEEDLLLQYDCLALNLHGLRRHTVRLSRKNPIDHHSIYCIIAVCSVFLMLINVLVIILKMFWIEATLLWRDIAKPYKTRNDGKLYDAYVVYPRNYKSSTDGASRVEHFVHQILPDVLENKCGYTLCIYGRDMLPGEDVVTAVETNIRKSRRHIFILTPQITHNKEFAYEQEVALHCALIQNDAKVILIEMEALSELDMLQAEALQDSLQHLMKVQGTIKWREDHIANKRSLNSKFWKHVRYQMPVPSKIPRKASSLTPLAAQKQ
# Several values for one entry are separate records, joined by “and”; a condition that tells them apart may be missing. Identical values can stand only once. In all, about 78,000 compounds went through this assay and about 1,800 (2.3%) were called active. The inconclusive results got no clear call from the source; some entries with a clear call stand among them for comparison. No stated cut-off is given here; in the data, active means inhibition above about 30%; inconclusive means mostly about 10% to 28%; inactive means weaker than that.
# Biological target: Interleukin-1 receptor-like 1 (Homo sapiens) (UniProt Q01638)
# Experiment: blocks human ST2 binding to IL-33, primary screen, biochemical, AlphaLISA (AID 1259354)
# Conditions: AlphaLISA ST2-Fc/biotin-IL-33 interaction, 1 h; at 17 µM, stronger effect = higher value
row,Compound,inhibition
1,CN(Cc1ccccc1)C(=O)C1CCC(CNS(=O)(=O)c2cccc3nsnc23)CC1 (stereo not drawn),inconclusive: 10%
2,Cc1cc(N2CCOCC2)nc2ccc(NC(=O)CCC(=O)N(C)C3CCCCC3)cc12,inactive
3,CC(=O)N[C@@H]1C[C@H](Cc2ccccc2)O[C@H](c2cc(C(C)(C)C)n[nH]2)C1,inactive
4,c1ccc(CCCN2Cc3[nH]cnc3C[C@H]2c2nc(-c3ccc4c(c3)OCO4)no2)cc1,inconclusive: 15%
5,Cn1c2c(c(=O)n(C)c1=O)C(c1ccccc1[N+](=O)[O-])C(C#N)=C(N)O2 (stereo not drawn),inconclusive: 16%
6,CCc1ccc2oc(=O)cc(CN3CCCC(N4CCCC4=O)C3)c2c1 (stereo not drawn),inconclusive: 15%
7,CCOC(=O)c1ccc(NC(=O)C2CC(=O)NC(=Nc3ccc(OC)cc3)S2)cc1 (stereo not drawn),inconclusive: 14%
8,Cc1sc(N)nc1-c1c[nH]c2ccccc12,inconclusive: 25%
9,Cc1cc(N2CC(C)CC(C)C2)nc2ccc(NC(=O)CCC(=O)N3CCC(C)CC3)cc12 (stereo not drawn),inconclusive: 17%
10,COc1ccc(C(=O)C2CCCN(Cc3cc4ccccc4[nH]3)C2)c(OC)c1 (stereo not drawn),inconclusive: 21%
11,NC(=O)c1cccnc1N1CCC2(CCCN(Cc3cccc(F)c3F)C2)C1 (stereo not drawn),inconclusive: 21%
12,OCCCc1cn(C2CCN(Cc3nc4ccccc4s3)CC2)nn1,inconclusive: 22%
13,Cc1ccc([N+](=O)[O-])cc1S(=O)(=O)N(c1ccc(Cl)cc1)C(F)F,inconclusive: 10%
14,c1cc(-c2noc([C@@H]3CCCN3Cc3ncc[nH]3)n2)cc(N2CCCC2)n1,inactive
15,COCCOc1ccc(C(=O)N[C@@H]2CN(C(=O)NCc3ccccc3)CCC[C@H]2O)cc1,inactive
16,Nc1cc(N)nc(SCc2noc(-c3ccc(Cl)cc3)n2)n1,inconclusive: 11%
17,Cc1cc(C)c(S(=O)(=O)NCc2ccc3c(c2)OCO3)cc1C,inconclusive: 24%
18,Cc1ccccc1Cc1c(C)nc2nc(SCC(=O)O)nn2c1C,inactive
19,CCCCNC(=O)Cn1cnc2c1c(=O)n(C)c(=O)n2C,inactive
20,COc1ccc(N2C(=O)CC(Nc3ccc(OC(F)(F)F)cc3)C2=O)cc1 (stereo not drawn),inconclusive: 12%

row,Compound,inhibition
1,CC[C@H]1CN(C(=O)c2ccc(F)cc2)CC[C@H]1CC(=O)Nc1ccccc1,inconclusive: 11%
2,COc1ccc(C(=O)N(C)Cc2ccccc2)cc1Br,inconclusive: 21%
3,O=C(c1ccc2n[nH]nc2c1)N1CCCC(c2[nH]ncc2-c2ccccc2)C1 (stereo not drawn),inconclusive: 11%
4,N#CCCN(C1CCCCC1)S(=O)(=O)c1ccc(-c2ccc([N+](=O)[O-])cc2)cc1,inconclusive: 16%
5,COc1ccc(CN2CCC(c3ccccc3Cl)C2)cc1C(=O)O (stereo not drawn),inconclusive: 20%
6,CCC(NS(=O)(=O)c1ccc(OC)c(OC)c1)C12CC3CC(CC(C3)C1)C2 (stereo not drawn),inactive
7,O=C(NCc1ccco1)C1C2C=CC3(CN(Cc4cccs4)C(=O)C13)O2 (stereo not drawn),inactive
8,O=C(Nc1cccc(NC(=O)c2ccccc2F)c1)c1ccco1,inactive
9,S=C(Nc1ccccc1)Nc1nccs1,inconclusive: 15%
10,CCOc1ccc(-n2c(SCC(=O)NCC3CCCO3)nc3c(c2=O)SCC3)cc1 (stereo not drawn),inactive
11,CCOC(=O)c1ccc2c(c1)N(Cc1ccc(Cl)cc1)C(=O)CS2,inconclusive: 12%
12,COc1ccccc1-n1c(SCC(=O)Nc2ccccc2)nc2c(c1=O)SCC2,active: 35% and inconclusive: 10%
13,O=C(NC1CC1)c1ccc2c(c1)N(Cc1ccc(F)cc1)C(=O)CS2=O (stereo not drawn),inconclusive: 22%
14,Cc1nc2ncnn2c(C)c1CCC(=O)NC1CCCN(CCc2ccccc2)C1 (stereo not drawn),inconclusive: 20%
15,O=C(c1cn[nH]n1)N1CC(Oc2cccc(F)c2)C1,inconclusive: 15%
16,Cc1cc(Br)ccc1NC(=O)CCS(=O)(=O)c1ccc(Br)s1,inactive
17,COc1cc(OC)cc(C(=O)OCCN(C)C2=NS(=O)(=O)c3ccccc32)c1,inconclusive: 11%
18,COc1ccc2c(c1)C1OCCC1C(c1ccco1)N2 (stereo not drawn),inconclusive: 17%
19,O=C(c1ccc(Oc2ccccc2)cc1)C1CCCN(C(=O)CN2CCOC2=O)C1 (stereo not drawn),inconclusive: 20%
20,CN1CC2(CCN(C(=O)c3cc(=O)n(-c4ccccc4)[nH]3)C2)OC1=O (stereo not drawn),inactive

row,Compound,inhibition
1,Oc1ccc(-c2[nH]ncc2-c2ccccc2)c(O)c1,inconclusive: 11%
2,CCOC(=O)C1(CCc2ccccc2)CCN(C(=O)Cc2csc(C(C)=O)c2)CC1,inactive
3,O=C1c2ccc(Oc3cccc([N+](=O)[O-])c3)cc2C(=O)N1c1nccs1,inactive
4,O=C(C#Cc1ccccc1)C#Cc1ccccc1,inconclusive: 19%
5,Cc1ccc(-n2c(-c3ccco3)nc3c(cnn3-c3ccc(Cl)cc3)c2=O)cc1,inconclusive: 21%
6,CC1(C)CC(=O)C2=C(C1)OC(N)=C(C#N)C2c1ccc(Br)cc1 (stereo not drawn),inconclusive: 10%
7,COc1nccnc1NS(=O)(=O)c1ccc(NC(=O)c2ccc(Br)cc2)cc1,inconclusive: 16%
8,O=C(c1cccn2c(=O)c3sccc3nc12)N1CCN(c2ccccc2)CC1,inactive
9,CCCCc1nc(Cl)c(CN2CCN(Cc3ncccc3C)CC2)[nH]1,inconclusive: 15%
10,Cc1ccccc1CSc1nc(-c2cccs2)nc2c1c(=O)n(C)c(=O)n2C,inconclusive: 19%
11,Cc1cnn(-c2nc(-c3ccc(F)cc3)cc(C(F)(F)F)n2)c1,inconclusive: 17%
12,O=C(c1ccc(F)c(F)c1)N1CCN=C1SCc1ccccc1F,inconclusive: 13%
13,COc1ccccc1NC(=O)C1=C(C)Nc2nnnn2C1c1ccc(Cl)cc1 (stereo not drawn),inconclusive: 15%
14,CCOC(=O)CN(Cc1ccc(Cl)cc1)S(=O)(=O)c1ccc(C(C)(C)C)cc1,inactive
15,CCOc1ccc(S(=O)(=O)NCc2nc3cccnc3n2CCOC)cc1,inconclusive: 16%
16,O=C(NCCC1=CCCCC1)C1CC12CCN(Cc1ccc3ccccc3c1)CC2 (stereo not drawn),inconclusive: 14%
17,O=C(CN1CCN(Cc2ccc(Cl)cc2)C1=O)NC1CCCCCCC1,inactive
18,CCCC(=O)Oc1ccc2c(=O)c(Oc3ccccc3Br)coc2c1,inactive
